Measured values reported in patent publication US11180761.

Amino acid sequences for entries named in this document (tags omitted). Residues count along the entry.
UniProt P16234, 24-524: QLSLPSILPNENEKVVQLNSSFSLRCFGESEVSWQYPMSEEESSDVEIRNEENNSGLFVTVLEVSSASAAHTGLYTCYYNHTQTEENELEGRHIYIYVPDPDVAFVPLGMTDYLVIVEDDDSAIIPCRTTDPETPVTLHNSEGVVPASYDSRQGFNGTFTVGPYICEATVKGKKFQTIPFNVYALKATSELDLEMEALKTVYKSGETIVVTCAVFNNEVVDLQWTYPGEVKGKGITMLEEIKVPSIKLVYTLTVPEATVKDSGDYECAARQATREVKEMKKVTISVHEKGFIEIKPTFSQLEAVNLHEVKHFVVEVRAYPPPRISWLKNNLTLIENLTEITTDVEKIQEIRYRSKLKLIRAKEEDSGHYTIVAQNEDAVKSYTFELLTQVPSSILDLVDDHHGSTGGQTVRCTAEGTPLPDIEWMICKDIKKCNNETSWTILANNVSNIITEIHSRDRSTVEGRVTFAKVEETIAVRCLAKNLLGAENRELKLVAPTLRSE

Molecular target: PDGFR-alpha (PDGFRA) extracellular domain (UniProt P16234)
Assay: SELEX
Conditions: 2'-F pyrimidines (2'-F U and 2'-F C); clone from pool after 12 rounds; 30 mM Tris-HCl, 150 mM NaCl, 1.5 mM MgCl2, 2 mM DTT, 1% BSA, room temperature; no individual affinity given; purified recombinant protein; protein details: His tag, Sino Biological 10556-H08H

Sequence: GGGAGAGCGGAAGCGUGCUGGGCCUAUUGCAUCUUUCUGUUAUUUCCGAAUCCGUCCCGACUGUCAUAACCCAGAGGUGAUGGAUCCCCC [PDR9]
- selection result: selected

Construct, isoform or probe ends are uncertain for at least one entry.
